This is one part of the list.
Each sequence was assayed against T1, OsSMF1 (Oryza sativa, UniProt Q6ZLB0 1-436) (assay: protein-binding microarray (RPBM); PBS, 2% BSA, 51.3 ng/ul salmon testes DNA, 50 uM zinc acetate, 200 nM TF, 25 C, 1 h; high values mean tight binding). Conditions: protein: recombinant; tags: N-terminal polyhistidine and DsRed monomer fusion (pET32a); chain copies: 2; label: CyDye5-dUTP incorporated in the synthesized complementary strand; 3' TTTTT single-stranded linker to array surface; dsDNA, one strand shown.
T1 sequence: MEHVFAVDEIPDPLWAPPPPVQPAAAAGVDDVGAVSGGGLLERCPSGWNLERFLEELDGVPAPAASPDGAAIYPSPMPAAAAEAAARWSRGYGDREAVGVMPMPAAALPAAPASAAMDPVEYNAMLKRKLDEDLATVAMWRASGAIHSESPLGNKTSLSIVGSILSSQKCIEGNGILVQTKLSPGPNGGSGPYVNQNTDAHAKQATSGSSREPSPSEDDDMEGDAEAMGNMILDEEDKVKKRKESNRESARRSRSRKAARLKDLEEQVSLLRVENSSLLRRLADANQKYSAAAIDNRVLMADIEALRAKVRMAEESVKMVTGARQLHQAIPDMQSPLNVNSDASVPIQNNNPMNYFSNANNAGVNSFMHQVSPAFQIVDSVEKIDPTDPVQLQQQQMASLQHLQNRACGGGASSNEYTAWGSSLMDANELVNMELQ
Summary of the method: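 Binding signal is reported as fluorescence intensity per feature (arbitrary units) from an Axon 4000B scanner. Incubation used 200 nM of each Ni–NTA-purified, N-terminally polyhistidine- and DsRed-fused transcription factor from E. coli BL21-CodonPlus on a double-stranded custom Agilent array for 1 h at 25 °C, with 50 µM zinc acetate in the buffer, followed by washing.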

Sequence | binding signal
CGAGGCGGGGTGCACCTTCATGGTCAGTGGCCCGTGGTTCCGGAGTCACCTAGTGCAG | 4270 fluorescence intensity (a.u.)
GAGGCGGCGGATCTGACGTCTAACCTAATTGTTGTCCCAGCGGAGTCACCTAGTGCAG | 4090 fluorescence intensity (a.u.)
CTTTGATGGCTGAGTTGGCATCTTCGCAGGATGCGCATGACGGAGTCACCTAGTGCAG | 7300 fluorescence intensity (a.u.)
ATGCAGCCACACGGATGTTGGACGTCATTGTCTATAGTGTCGGAGTCACCTAGTGCAG | 4580 fluorescence intensity (a.u.)
GACGTGCGCAGTGACGCAGCATCCCTCGTCTCCGCTATTTCGGAGTCACCTAGTGCAG | 7830 fluorescence intensity (a.u.)
ATGCGCACTTTCCCTGTAAGTACACACGTACACTGTACCCCGGAGTCACCTAGTGCAG | 3180 fluorescence intensity (a.u.)
TTTTGTTTACTTGGAGATTTGTGATATCATCTTGACCATGCGGAGTCACCTAGTGCAG | 3760 fluorescence intensity (a.u.)
GGAAAACACGATGGAATAGCTCACCCCAACTTCCGTTTCGCGGAGTCACCTAGTGCAG | 3320 fluorescence intensity (a.u.)
ACTCTCTGGTTTGTCATGTGTTACACCCAATTGTCATCAGCGGAGTCACCTAGTGCAG | 3520 fluorescence intensity (a.u.)
ATTTAAATCAATGTTGATGATGTAGCACTTTTGAATTCATCGGAGTCACCTAGTGCAG | 3380 fluorescence intensity (a.u.)
GAATCCACGTGTTAGTGACGCACATCCCTCTAAAGTACGTCGGAGTCACCTAGTGCAG | 13900 fluorescence intensity (a.u.)
GGGTTGACCAGCCAGGCAGGCTCGACTCAAGCCCGACCCCCGGAGTCACCTAGTGCAG | 18300 fluorescence intensity (a.u.)
AGTACTAGTTGGAATCATATGTGTCTATGGAGTATATTTTCGGAGTCACCTAGTGCAG | 3160 fluorescence intensity (a.u.)
CACCTATCCATCCATCCATGTGTGGTGTCGTGTCAGCGTTCGGAGTCACCTAGTGCAG | 6950 fluorescence intensity (a.u.)
CAGAAACAAAGAACCCGTCATCCCCACGGCCGCTTCTCTCCGGAGTCACCTAGTGCAG | 3850 fluorescence intensity (a.u.)
CCGGATATGTTCTCGTAGTTTATATACGTTCATGATGACACGGAGTCACCTAGTGCAG | 3450 fluorescence intensity (a.u.)
TTAGTGCATGCTGCTAACTAAATACACGTAGCTTGTTGATCGGAGTCACCTAGTGCAG | 3310 fluorescence intensity (a.u.)
CGAAGAAAGTTTACAGCCCACGTATCTGCTATATATGGGCCGGAGTCACCTAGTGCAG | 3610 fluorescence intensity (a.u.)
GACCACGTGGCCGCCACCTCAGCCACCCGGCCCCGCTTGACGGAGTCACCTAGTGCAG | 13800 fluorescence intensity (a.u.)
AGACACTTTTGCAGGGATTGCTCAGACTTAGTTTCAGAGTCGGAGTCACCTAGTGCAG | 3940 fluorescence intensity (a.u.)
CGACGCGGCGGCGAAAAGTCGGCGAACTGCGGCGAGGTGGCGGAGTCACCTAGTGCAG | 30100 fluorescence intensity (a.u.)

A second format for some results above:

| Sequence | binding signal |
| --- | --- |
| ATGCGCACTTTCCCTGTAAGTACACACGTACACTGTACCCCGGAGTCACCTAGTGCAG | 3180 fluorescence intensity (a.u.) |
| TTTTGTTTACTTGGAGATTTGTGATATCATCTTGACCATGCGGAGTCACCTAGTGCAG | 3760 fluorescence intensity (a.u.) |

Additional entries

Sequence | binding signal
TTCGCTCTCCGCCCACTTCCCCATCACGCGCGAGCGCTGCCGGAGTCACCTAGTGCAG | 4600 fluorescence intensity (a.u.)
TTTATTGTAATGACGTGCGCAACACGGCAGAATTTTATGTCGGAGTCACCTAGTGCAG | 4820 fluorescence intensity (a.u.)
GATACATGTGTATGACATGTGGGACCAGATACTAATTATGCGGAGTCACCTAGTGCAG | 19300 fluorescence intensity (a.u.)
ACGGATGGGTGGGACCCACGTGGACACGTGGCCAAACGGCCGGAGTCACCTAGTGCAG | 12200 fluorescence intensity (a.u.)
GTTGCAACCACAGCCGTCCGGCACTGTACGCTACTGTTTTCGGAGTCACCTAGTGCAG | 30600 fluorescence intensity (a.u.)
ACCCAACCACCGGCTGTTGCATCCACGCCACCGTGTCGTGCGGAGTCACCTAGTGCAG | 4840 fluorescence intensity (a.u.)
TGATTCCACACATTCGGTGTGCGCCGCGTCCACGCCGCCCCGGAGTCACCTAGTGCAG | 4660 fluorescence intensity (a.u.)
GGAGATGGAGCTAGGGTTTGGGCGGCGGCGGCGCGCCGAGCGGAGTCACCTAGTGCAG | 19600 fluorescence intensity (a.u.)
AACACACCCTAAAGGAGTATACCAATGTACCATGATGACTCGGAGTCACCTAGTGCAG | 3830 fluorescence intensity (a.u.)
CACTGGTACACGGAGTATATACACACACCACTAGTCCCGTCGGAGTCACCTAGTGCAG | 3150 fluorescence intensity (a.u.)
TAGAAAGTCTCTCTTGTCAGTGTCACTGATCGATATATCGCGGAGTCACCTAGTGCAG | 4930 fluorescence intensity (a.u.)
GGCGGCGTGGAGCTGCGAGGGCAGTGGCGGCGGGGAGCTGCGGAGTCACCTAGTGCAG | 3230 fluorescence intensity (a.u.)
GCGTGGAGTGGAGAGTGGAGAGGCATGGGAGGCATGGCAGCGGAGTCACCTAGTGCAG | 42900 fluorescence intensity (a.u.)
ACGATCCAATCTTCATGTTTGTCCTAATGACGTTGCGACTCGGAGTCACCTAGTGCAG | 4850 fluorescence intensity (a.u.)
AACTAAACTCCGCGTTAGTATGACATGTAAGCCCCACAGTCGGAGTCACCTAGTGCAG | 3810 fluorescence intensity (a.u.)
ATGGCAAGCAACGCGTCAACGATGACGACGGTGGTGTGCGCGGAGTCACCTAGTGCAG | 5680 fluorescence intensity (a.u.)
AACGTCACTGACAAGTGGGACCCTATACGTGGGATCACTCCGGAGTCACCTAGTGCAG | 3880 fluorescence intensity (a.u.)
CCCCTTATTTCTCTGCCAAGTGCCAACTCAGCATATTAGTCGGAGTCACCTAGTGCAG | 12600 fluorescence intensity (a.u.)
ATCCCAAATCACCCGTCACCGGCGGCCACGACCGCACCCGCGGAGTCACCTAGTGCAG | 4060 fluorescence intensity (a.u.)
CACCAGGCACCGACTGCCGTAGTGTCACCGGCCACAGTGCCGGAGTCACCTAGTGCAG | 3220 fluorescence intensity (a.u.)
CGCAAACATTTTCGGAATATACGAATCCAGCGTTGCACTGCGGAGTCACCTAGTGCAG | 3250 fluorescence intensity (a.u.)
